Body weight and food consumption data for 1 molecule are collected here from patent US10709724B2, “Methods of treating mitochondrial dysfunction” (Ecole Polytechnique Federale de Lausanne (EPFL), priority 2011, dated 2020).

SMILES strings stand for the structures.

For the data set, the system named is C57Bl/6J male mice. Description: PJ34 treatment of mice (5 days). As to conditions: 10 mg/kg i.p. twice a day. It counts as in vivo. The procedure:
Animal Experiments. Male PARP-1^+/+ and PARP-1^−/− mice on a pure C57Bl/6J background (Menissier-de Murcia et al., 1997) were used. Mice were housed separately, had ad libitum access to water and standard rodent chow (10 kcal % of fat, Safe, Augy, France) or to a high calorie, high fat diet (60 kcal % of fat, Research. Diets, New Brunswick, N.J., USA), and were kept under a 12 h dark-light cycle. In other animal experiments, 8 weeks-old male C57Bl/6J mice were purchased from Charles River and powder chow (D12450B) and high fat (D12492) diets were from Research Diets Inc (New Brunswick, N.J., USA). 80 ml of water per kg of powder CD were used to make food pellets. […] To monitor body weight, mice were weighed and the food consumption was measured each week on the same day. […] Oral glucose tolerance test, intraperitoneal insulin tolerance test, free fatty acid (FFA) and triglycerides were determined as described (Lagouge et al., 2006). Plasma insulin and was determined in heparinized plasma samples using specific ELISA kits (Mercodia). […] Plasma parameters were measured using a Cobas c111 (Roche Diagnostics). […] We measured O2 consumption, CO2 production, and spontaneous locomotor activity in an open circuit indirect calorimetry system (Sabre systems, Las Vegas, Nev., USA) over 24-48 has described (Dali-Youcef et al., 2007; Lagouge et al., 2006; Watanabe et al., 2006). […]

On to `CN(C)CC(=O)Nc1ccc2[nH]c(=O)c3ccccc3c2c1` [PJ34], for which the body weight result is listed as “did not cause a difference” and the food consumption entry was “did not cause a difference”.
